Experimental data taken from publication PMC8345219 (Cancers, 2021).

Assay: general procedure: Fmoc solid-phase peptide synthesis; Wang resin or 2-chlorotrityl chloride resin; oxyma/DIC
Conditions: whole synthesis, scale of the general procedure 15 µmol

Final HPLC purity, >95%:
GFLGYFP(xQFAFC) (cyclic; GFLG linker)
H-YFP[d(hCys)]QFAFC-OH (disulfide 4-9)
H-YFP[dC]QFAFC-OH (disulfide 4-9; SMILES C[C@@H]1NC(=O)[C@H](Cc2ccccc2)NC(=O)[C@H](CCC(N)=O)NC(=O)[C@H](NC(=O)[C@@H]2CCCN2C(=O)[C@H](Cc2ccccc2)NC(=O)[C@@H](N)Cc2ccc(O)cc2)CSSC[C@@H](C(=O)O)NC(=O)[C@H](Cc2ccccc2)NC1=O)
Mtx-GFLGK(Ac)YFP(xQFAFC)
PEPTIDE1{Y.F.P.G.Q.F.A.F.S}$$$$V2.0
PEPTIDE1{Y.F.P.[dC].Q.F.[XKTam].F.C}$PEPTIDE1,PEPTIDE1,4:R3-9:R3$$$V2.0
PEPTIDE1{[XTam].Y.F.P.G.Q.F.A.F.S}$$$$V2.0
PEPTIDE1{[dY].F.P.[dC].Q.F.[XKTam].F.C}$PEPTIDE1,PEPTIDE1,4:R3-9:R3$$$V2.0
Tam-EG(4)-YFP(xQFAFC)
Tam-EG(4)-YFPGQFAAS (Tam-EG(4) N-terminal label)
Tam-YFP(c(CH2)QFAFC)
Tam-YFP(c(CH2)QFAFX)
Tam-YFP(c(CH2)QFCFS)
X1-YFP[dC]QFAFC-OH (disulfide 4-9)
X1-YFP[dC]QFCFS-OH (disulfide 4-7)
YFP(c(CH2)QFAFC)

The same purity stands for every peptide and may come from a single statement. HELM strings list residues between dots; [ac] is acetyl, [am] amide, other brackets name non-standard units. Bridges are numbered along the chain shown (N, C = ends). [ ]: non-standard residue; d: D form. The star is where a group is joined. X1 = CN(C)c1ccc2c(c1)Oc1cc(N(C)C)ccc1C21OC(=O)c2ccc(C(=O)*)cc21; d(hCys) = N[C@H](CCS)C(=O)O
